PMC2670831
No constants are given. Whether binding was seen depends on the method and setting. In cells and extracts the contact can be indirect. Some entries that bind do so weakly or less than the wild type. Tags and fused reporters may be left off the sequences shown.

What was measured:
[1] = biological target: T1, GFP-tagged DNAJB13 (mouse) (UniProt Q80Y75); test: co-IP; U2OS and CHO cell lines; data not shown
T1 sequence: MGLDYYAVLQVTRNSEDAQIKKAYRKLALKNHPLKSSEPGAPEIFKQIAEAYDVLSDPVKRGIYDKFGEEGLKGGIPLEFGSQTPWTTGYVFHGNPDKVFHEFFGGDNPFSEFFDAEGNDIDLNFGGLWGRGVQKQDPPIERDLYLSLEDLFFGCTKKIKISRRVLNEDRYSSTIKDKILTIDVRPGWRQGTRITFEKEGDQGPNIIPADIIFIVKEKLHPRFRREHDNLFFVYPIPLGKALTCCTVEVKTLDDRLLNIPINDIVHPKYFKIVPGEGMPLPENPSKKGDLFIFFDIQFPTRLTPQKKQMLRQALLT

[2] = biological target: T1, GFP-tagged DNAJB13 (mouse); test: co-IP; HeLa S3 cells co-transfected with pEGFP-Dnajb13 and p3xFLAG-Sept4; lysed after 24 h in ELB buffer (50 mM Hepes pH 7.4, 0.25 M NaCl, 0.5 mM EDTA, 0.1% NP-40); IP with rabbit anti-GFP antibody or normal rabbit IgG and protein G beads at 4°C; immunoblotting with anti-FLAG and anti-GFP

binding [1]: binds | binding [2]: binds
B1: FLAG-tagged SEPT4 (protein, UniProt P28661-1 1-478)
chain: MDHSLGWQGNSVPEDGTEAGIKHFLEDSSDDAELSKFVKDFPGSEPYHSAESKTRVARPQILEPRPQSPDLCDDDVEFRGSLWPQPSDSQQYFSAPAPLSPSSRPRSPWGKLDPYDSSEDDKEYVGFATLPNQVHRKSVKKGFDFTLMVAGESGLGKSTLVNSLFLTDLYRDRKLLGAEERIMQTVEITKHAVDIEEKGVRLRLTIVDTPGFGDAVNNTECWKPVAEYIDQQFEQYFRDESGLNRKNIQDNRVHCCLYFISPFGHGLRPLDVEFMKALHQRVNIVPILAKADTLTPPEVDRKKCKIREEIEHFGIKIYQFPDCDSDEDEDFKLQDQALKESIPFAVIGSNTVVEARGRRVRGRLYPWGIVEVENPGHCDFVKLRTMLVRTHMQDLKDVTRETHYENYRAQCIQSMTRLVVKERNRNKLTRESGTDFPIPAVPPGTDPETEKLIREKDEELRRMQEMLHKIQRQMKETH
